Data from the supplement of paper PMC3334620.
Over roughly 33,000 sequences, “E-score (-0.5 to 0.5)” has its median near -0.0034; the highest 2% begin near 0.25. The list shows a part of the results.

Molecular target: T1, Yap3 (UniProt P38749)
T1 sequence: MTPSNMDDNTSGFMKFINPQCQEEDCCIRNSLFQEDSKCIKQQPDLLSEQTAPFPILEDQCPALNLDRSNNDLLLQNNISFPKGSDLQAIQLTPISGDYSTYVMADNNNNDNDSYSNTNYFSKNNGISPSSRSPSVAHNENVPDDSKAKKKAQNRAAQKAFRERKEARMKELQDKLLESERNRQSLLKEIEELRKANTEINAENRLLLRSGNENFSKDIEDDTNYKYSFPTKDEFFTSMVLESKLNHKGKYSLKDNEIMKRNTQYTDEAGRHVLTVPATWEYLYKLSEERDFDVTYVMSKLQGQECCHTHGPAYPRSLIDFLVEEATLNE
Test: PBM E-score (8-mer binding enrichment) (E-score (-0.5 to 0.5)); higher = stronger / more preferred TF binding
Details: protein concentration: 100 nM; construct: GST-full length
In short: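 Universal all-10-mer Agilent arrays, double-stranded by primer extension on fresh or once-stripped slides, were probed with about 100-200 nM GST-tagged yeast transcription factors made by PURExpress. Fluorescent anti-GST detected bound protein, and masliner normalised the scans. E-scores from the Universal PBM Analysis Suite were given to each ungapped eight-base word pooled with its reverse complement.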

Row | Sequence | PBM E-score
1 | AACTGCTT | -0.131
2 | GACGCGAA | -0.0406
3 | AAAAGAAT | 0.208
4 | AGATCCGG | -0.183
5 | CCATGTTC | 0.0121
6 | ACGATAGA | -0.024
7 | ACGCACGT | -0.206
8 | CCTTTATA | 0.0052
9 | CCCCGTGC | -0.124
10 | ACATAACG | 0.135
11 | AGAAGATG | -0.0173
12 | ACAGGTAT | 0.152
13 | ACCACTCC | -0.14
14 | CTACAGTC | -0.144
15 | GTGCGAAC | -0.162
16 | AGCCTTTA | 0.0345
17 | ATCGCGGA | -0.0771
18 | TACGACAA | 0.182
19 | CGCGTACC | -0.196
20 | CATCACCA | 0.131
21 | AAGGGGAG | -0.362
22 | CGGGTAGA | 0.0108
23 | ATTTGCGA | 0.182
24 | CCTCCACG | -0.149
25 | CCCGCCGC | -0.0464

An excerpt of these results, field by field:
CCATGTTC
  PBM E-score: 0.0121
CCCCGTGC
  PBM E-score: -0.124
ACCACTCC
  PBM E-score: -0.14
CGCGTACC
  PBM E-score: -0.196

The list goes on.

Row | Sequence | PBM E-score
26 | TGAAAGAA | 0.297
27 | GTTTGACA | 0.0805
28 | CTGCAGTA | -0.144
29 | TCTAAAAA | -0.0367
30 | ACCTTTTC | -0.0024
31 | CGTCAACC | -0.0459
32 | GATATTTA | 0.149
33 | TAGTTGCA | -0.0088
34 | ACGCTGGA | -0.0371
35 | CTGTTATC | 0.164
36 | CCACGACA | -0.0716
37 | CAGGGAGG | -0.345
38 | GGAGAATA | 0.136
39 | GCCGCAGC | -0.24
40 | ACCTCATG | -0.289
41 | GTGTCCAA | 0.111
42 | GTAATTAC | 0.306
43 | ACCGTAGC | -0.0405
44 | CGTGCGGC | -0.0562
45 | CAGAAGCG | 0.0947
46 | GTTTTAAA | 0.235
47 | GCGGGTGA | -0.0914
48 | AGTATCAA | 0.159
49 | CCGCTTCG | -0.169
50 | CGGTTGGA | 0.0109

Copied from above, nos. 37 to 42
Row | Sequence | PBM E-score
37 | CAGGGAGG | -0.345
38 | GGAGAATA | 0.136
39 | GCCGCAGC | -0.24
40 | ACCTCATG | -0.289
41 | GTGTCCAA | 0.111
42 | GTAATTAC | 0.306

(continued)

Row | Sequence | PBM E-score
51 | AACAAGCA | 0.0699
52 | CCGGCGCG | -0.133
53 | ATCATCAG | 0.113
54 | TATGTAAA | 0.262
55 | TTTACAAA | 0.262
56 | ATTGAAAT | 0.263
57 | AGATGGTG | -0.132
58 | ATTGCAGG | 0.073
59 | GAGACAGA | 0.0683
60 | ATTCGGTC | 0.0853
61 | AAACGTCA | -0.104
62 | CCACTACG | 0.0351
63 | GGTGGGCA | 0.0503
64 | ACCGCGCA | 0.031
65 | GTTGGCCA | -0.173
66 | GAACGAGA | 0.104
67 | ACGGACGC | -0.114
68 | CAACGCGA | 0.102
69 | TAAATTAA | 0.234
70 | ACGACAAC | 0.197
71 | ATGTGAAC | 0.0896
72 | AGCGCTTA | 0.0641
73 | ATATTAAT | 0.351
74 | GGCGCTTA | -0.239
75 | ATCTAGCA | 0.115

Row | Sequence | PBM E-score
76 | ATTGCACC | 0.0372
77 | CCTTGATA | 0.12
78 | ACGATAAA | 0.0463
79 | ACGTCCCT | -0.0631
80 | ATATCTGC | -0.0964
81 | ACTGCCCG | 0.0277
82 | TAGGCCCA | -0.198
83 | CTCAAACA | 0.203
84 | AAAGTAGG | 0.231
85 | AGAGGCTG | -0.306
86 | ACATGTAA | 0.184
87 | GCCTTGGA | -0.115
88 | AACTCTCT | 0.057
89 | GTTGACTA | 0.0363
90 | CTAAAGAA | 0.0205
91 | ACCGCGGG | 0.0395
92 | AACCACCA | 0.0808
93 | AACGCTTC | -0.0152
94 | ACATACTA | 0.212
95 | CTCTAGAC | -0.185
96 | ATGAAAAG | 0.122
97 | AGCCGCAT | 0.025
98 | ACTGCTTA | 0.00361
99 | CACCATTA | 0.159
100 | ACCACAGA | -0.0994

Row | Sequence | PBM E-score
101 | AAATCGTC | 0.0202
102 | AGAGCCAG | -0.175
103 | CATCTCGG | 0.00528
104 | ATATGACG | 0.134
105 | AAGTGGCA | 0.0555
106 | GATGCCCC | -0.238
107 | AGCCCCGC | -0.145
108 | CGCTAATA | 0.0177
109 | GTTAAACA | 0.144
110 | CTGCCTCA | -0.103
111 | GATTAGCA | 0.108
112 | TCGCAACA | -0.00199
113 | ATTGACCA | 0.0958
114 | GCAATGGA | 0.0106
115 | ACTACCGG | -0.1
116 | CTGGGGCC | -0.311
117 | AAACAAGT | 0.147
118 | GCAATTCC | -0.0127
119 | ATGTTGAG | 0.0495
120 | AACTTTGG | -0.043
121 | ACCACATC | 0.0205
122 | AACAGGTG | -0.0407
123 | CCAAATCG | -0.154
124 | ACAATACC | 0.14
125 | GGGGTACA | -0.267

Row | Sequence | PBM E-score
126 | CCTCAGAC | 0.0436
127 | TGGTCACA | -0.0455
128 | GGGGAACC | -0.316
129 | AGCAACCT | -0.129
130 | CTGACCAA | 0.153
131 | GCACCCCC | -0.276
132 | ACCGTGAT | 0.0952
133 | ACCTGACG | -0.116
134 | ACCGGGTG | -0.17
135 | ACCACGTC | -0.0114
136 | CTCTCGTA | -0.063
137 | AGCAGTAC | 0.0364
138 | ATACATCA | 0.207
139 | ACTAGCGA | -0.201
140 | AAACGGCA | 0.117
141 | GTCTTCAA | -0.075
142 | CCTTCAGC | -0.0432
143 | CCGCGGAG | 0.0132
144 | CAGACATA | 0.0209
145 | CCCTACGG | -0.226
146 | CGCGTAGC | -0.052
147 | GATCACGA | 0.109
148 | CTAGAATA | 0.0631
149 | ATACTCGC | 0.161
150 | GACACTAC | 0.0232

Looked up one by one from the list above:
Row | Sequence | PBM E-score
132 | ACCGTGAT | 0.0952
134 | ACCGGGTG | -0.17
135 | ACCACGTC | -0.0114

More results:

Row | Sequence | PBM E-score
151 | CAGAGGTA | 0.0613
152 | GGATCCAC | -0.0381
153 | GATGCCGC | -0.201
154 | GGGCTCAA | -0.101
155 | AATTCGCA | 0.16
156 | GGCGTAGA | -0.0933
157 | CGAGCTCG | 0.196
158 | CTAACACC | 0.0413
159 | ACAGCTCC | -0.0502
160 | GATGTTCC | -0.0548
161 | ATTCGTAC | 0.22
162 | AAGAGATA | -0.0203
163 | AAATGTAG | 0.0746
164 | TACAATCA | 0.138
165 | GAGCACTA | -0.0463
166 | ATCGCAAA | 0.116
167 | CGAAGTCA | -0.0925
168 | ATTCGCTC | 0.11
169 | TATTGCCA | 0.105
170 | GCGCTGGA | -0.214
171 | AGCGTTGG | -0.0491
172 | GCTGCCCA | -0.328
